Laboratory results reported in PubChem BioAssay AID504444 (National Center for Advancing Translational Sciences (NCATS), 2011).
Hit rate of the full screen: of about 360,000 compounds, about 7,500 (2.1%) were called active. The inconclusive results got no clear call from the source; some entries with a clear call stand among them for comparison. Calls follow the shape of the dose curve; as a rule, active = well fitted inhibition curve with a large enough effect; inconclusive = small, poorly fitted or top-dose-only effect, or effect the other way; inactive = flat fitted curve, though single readings scatter. Potencies beside an inconclusive call are fits to weak or partial responses and may not hold up.

assay: Nrf2 qHTS screen for inhibitors; conditions: A549 ARE-Fluc reporter, luciferase luminescence, 18-24 h; series mostly up to 46 µM; also: nearly all actives have a fitted effect of over 60% in size
Outline: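 In this cell-based qHTS, ARE-driven firefly luciferase in A549 cells reports Nrf2 activity; the luminescent signal after BugLite lysis is the measured value, with a prior CellTiter-Fluor read for cell health.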
Potency is read from the fitted curve at half-maximal effect.

Compound	Potency
Cc1cccc(N2CCN(C(=O)CCc3c(C)nc4ncnn4c3C)CC2)c1C	inconclusive: 20.6 µM [falling, single point]
CCCN1CCC(=O)N(C(CSc2ccc(C)cc2)CC(C)C)CC1 (stereo unspecified)	inconclusive: 8.2 µM [activator, partial curve]
COc1ccc(-c2cn(-c3ccc(C)cc3C)c(=S)[nH]2)cc1OC	inconclusive: 23.1 µM [falling, single point]
Cc1cccc(NC(=O)CCS(=O)(=O)c2ccccc2)c1	inconclusive: 8.2 µM [activator, partial curve]
Brc1ccc(-c2cn3nc4c(nc3n2)CCCC4)cc1	inconclusive: 0.461 µM [activator, full curve, poor fit]
CCC(OC(=O)c1nsc(Cl)c1Cl)C(=O)NC(C)(C)CC (stereo unspecified)	inconclusive: 2.06 µM [falling, partial curve, poor fit]
CC(Nc1nc(-c2ccc(F)cc2)cs1)c1nc2cc(Cl)c(N3CCCCC3)cc2n1CCOCCO (stereo unspecified)	inconclusive: 20.6 µM [falling, partial curve, poor fit]
CCOc1cccc(/C=C/c2cc(C(=O)O)c3ccccc3n2)c1OC	inconclusive: 29.1 µM [falling, single point]
CCCCc1cc(=O)oc2c(C)c(OCC(=O)N3CCCC3)ccc12	inconclusive: 9.2 µM [falling, partial curve, poor fit]
Cc1ccccc1-c1nc(-c2ccc(NC(=O)c3ccc4c(c3)OCO4)cc2)no1	inconclusive: 13 µM [falling, partial curve, poor fit]
O=C(CCN1C(=O)c2ccccc2S1(=O)=O)NCc1ccco1	inactive
CC1Cc2cc(/C(O)=C3/C(=O)C(=O)N(CCCn4ccnc4)C3c3cccnc3)ccc2O1 (stereo unspecified)	inconclusive: 0.0731 µM [falling, partial curve, poor fit]
O=C(CSc1ccc(Cl)cc1)Nc1nnc(-c2ccco2)o1	inconclusive: 29.1 µM [falling, single point]
COc1ccccc1NS(=O)(=O)c1cccc(C(=O)N/N=C(\C)c2ccc3c(c2)OCCO3)c1	inactive
O=C(CCS(=O)(=O)c1ccc(F)cc1)N1CCOCC1	inconclusive: 16.4 µM [activator, partial curve]
Cc1ccc(C(=O)Nc2cccc(-c3nc4ccccc4o3)c2)c(Cl)c1	inconclusive: 29.1 µM [falling, partial curve, poor fit]
O=C(COc1ccc(Cl)cc1Br)NC(=O)NC1CCCC1	inconclusive: 1.64 µM [activator, full curve]
O=S(=O)(c1ccc(Oc2ncnc3scc(-c4ccccc4)c23)cc1)N1CCOCC1	active: 16.4 µM
Cc1ccccc1OCC(O)Cn1c(=N)n(CCN2CCCCC2)c2ccccc21 (stereo unspecified)	inactive
Cn1c(=O)n(Cc2ccc(F)cc2)c(=O)c2c1nc1n2CCN1Cc1ccco1	inconclusive: 13 µM [falling, single point]
CC(C)COc1ccc(C(=O)N(Cc2ccc(N(C)C)cc2)Cc2ccco2)cc1	inconclusive: 25.9 µM [falling, single point]

Compound	Potency
CC1CCCCN1c1nnc(NC(=O)Nc2ccccc2F)s1 (stereo unspecified)	active: 20.6 µM
CCOC(=O)C1(Cc2ccc(OC)cc2)CCN(C(=O)CN2CCOC2=O)CC1	inconclusive: 0.461 µM [activator, partial curve, poor fit]
O=[N+]([O-])c1ccc(N/N=C/c2c[nH]c3ccccc23)c(S(=O)(=O)Nc2ccc(Cl)cc2)c1	active: 14.6 µM
CCC(c1nnnn1Cc1ccccc1)N(Cc1ccco1)Cc1cc2cc(OC)ccc2[nH]c1=O (stereo unspecified)	inconclusive: 16.4 µM [falling, single point]
C/C(N)=C(/C#N)C(=O)CSc1nc2ccccc2[nH]1	inconclusive: 3.66 µM [activator, full curve]
O=C(NC1CCS(=O)(=O)C1)c1ccc(-c2ccc(Br)cc2)o1 (stereo unspecified)	inactive
Cc1cc(C)c(S(=O)(=O)c2ccc(C(C)(C)C)cc2)c(Cl)n1	inconclusive: 16.4 µM [falling, single point]
COc1cccc(NC(=O)CN(C)C(=O)/C=C/c2cn(-c3ccccc3)nc2-c2cccs2)c1	inconclusive: 18.4 µM [falling, single point]
Cc1ccc(OCc2nc3ccccc3n2CCOc2ccc(Cl)cc2)cc1	inconclusive: 32.6 µM [falling, single point]
O=C(c1ccco1)c1cn(CCOc2ccc(F)cc2)c2ccccc12	active: 23.1 µM
O=C(O)c1cc(-c2ccc3ccccc3c2)nc2ccc(F)cc12	inconclusive: 25.9 µM [activator, single point]
CN1/C(=C/C=N/n2cnnc2)C(C)(C)c2ccccc21	inactive
COc1ccc(-c2cc(C(=O)Nc3c(C)nn(Cc4ccc(C)cc4)c3C)no2)cc1OC	inconclusive: 23.1 µM [falling, single point]
CN(C)S(=O)(=O)c1ccc2[nH]cc(/C=C/c3nc4ccccc4c(=O)n3-c3ccccc3)c2c1	active: 10.3 µM
N#Cc1ccc(CN2CCN(C(=O)CN3C(=O)NC4(CCCC4)C3=O)CC2)cc1	inconclusive: 16.4 µM [falling, partial curve]
COc1ccc(NC(=O)CSc2ncccc2C(=O)OC(C)C)cc1OC	active: 9.2 µM
CCN(CC)P(=O)(Nc1cccc(C(F)(F)F)c1)c1ccc(N(C)C)cc1NC(=O)c1ccco1 (stereo unspecified)	inconclusive: 32.6 µM [falling, single point]
CC1=C(C#N)C(c2cn(-c3ccccc3)nc2-c2cccs2)C(C#N)=C(C)N1	inconclusive: 32.6 µM [falling, single point]
CC(C)OC(=O)c1ccc(COC(=O)c2cccc(-c3nnc(-c4ccccc4)o3)c2)cc1	inconclusive: 6.51 µM [activator, single point]
O=C(COc1cccc(C(F)(F)F)c1)Nc1nnc(C2CC2)s1	inconclusive: 25.9 µM [falling, partial curve, poor fit]

Structures from the list above with a COOH group, in the order listed:
Compound	Potency
CCOc1cccc(/C=C/c2cc(C(=O)O)c3ccccc3n2)c1OC	inconclusive: 29.1 µM [falling, single point]
O=C(O)c1cc(-c2ccc3ccccc3c2)nc2ccc(F)cc12	inconclusive: 25.9 µM [activator, single point]
